Experimental data: PubChem BioAssay AID493246 (Drosophila RNAi Screening Center, 2011)

Test: 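Genes fly cells need to grow and stay alive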 (primary screen)
Cells: Drosophila Kc and S2R+ cells
Knock-down reagent: long dsRNA against Drosophila genes
Read-out: 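Raw, unnormalised count of remaining cells in each well; per-plate z-scores of cell number underlie the calls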
Reading the numbers: Kc cell number and S2R+ cell number: higher = more cells remaining
Rule for the call: 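Active when the per-plate z-score of cell number is 3 or more in the direction of fewer cells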
The screen tested about 21,000 reagents; this is an unselected part of those with a known target gene and a result. In the full data, 429 (2%) were called active. 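Values are raw and not normalised between plates; calls rest on per-plate z-scores that were not deposited.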 The numbers tell different reagents against one gene apart. Names joined by + are all predicted targets of the reagent. The record does not give: the amount of reagent, the time to read-out.

gene	reagent no.	Kc cell number, rep 1	Kc cell number, rep 2	S2R+ cell number, rep 1	S2R+ cell number, rep 2	call
Usp7 (Ubiquitin-specific protease 7)	1	1.34e6	1.61e6	1.15e6	1.22e6	inactive
Usp7 (Ubiquitin-specific protease 7)	2	1.58e6	1.62e6	1.04e6	1.22e6	inactive
CG33523	1	1.60e6	1.51e6	1.09e6	1.22e6	inactive
f-cup (flyers-cup)	1	1.47e6	1.53e6	1.30e6	1.34e6	inactive
Cpr62Bc (Cuticular protein 62Bc)	1	1.43e6	1.32e6	1.15e6	1.33e6	inactive
Dsk (Drosulfakinin)	1	1.36e6	1.38e6	1.30e6	1.37e6	inactive
CG17361	1	1.66e6	1.56e6	1.18e6	1.31e6	inactive
stumps	1	1.39e6	1.63e6	1.05e6	1.22e6	inactive
stumps	2	1.19e6	1.16e6	8.60e5	1.01e6	inactive
stumps	3	1.50e6	1.56e6	1.22e6	1.23e6	inactive
inaF-B + inaF-D + inaF-C + 1 more	1	1.55e6	1.47e6	9.62e5	1.04e6	inactive
t (tan)	1	1.60e6	1.51e6	1.02e6	1.18e6	inactive
tral (trailer hitch)	1	1.09e6	1.15e6	7.77e5	7.55e5	inactive
Best1 (Bestrophin 1)	1	1.75e6	1.81e6	1.17e6	1.30e6	inactive
dpr13 (defective proboscis extension response 13)	1	1.58e6	1.69e6	1.25e6	1.39e6	inactive
dpr13 (defective proboscis extension response 13)	2	1.60e6	1.72e6	1.30e6	1.42e6	inactive
nur (nemuri)	1	1.49e6	1.62e6	1.04e6	1.23e6	inactive
Cbl (Cbl proto-oncogene)	1	1.46e6	1.44e6	1.10e6	1.20e6	inactive
Cbl (Cbl proto-oncogene)	2	1.54e6	1.44e6	1.02e6	1.09e6	inactive
CG6106	1	1.47e6	1.48e6	1.10e6	1.26e6	inactive
CG15210	1	1.71e6	1.63e6	1.09e6	1.16e6	inactive
CG14069	1	1.57e6	1.62e6	1.18e6	1.29e6	inactive
CG42382	1	1.41e6	1.53e6	1.29e6	1.29e6	inactive
CG18814	1	1.44e6	1.59e6	1.19e6	1.30e6	inactive
CG5681	1	1.62e6	1.63e6	1.32e6	1.45e6	inactive
CG11262	1	1.27e6	1.30e6	1.29e6	1.44e6	inactive
SREBP (Sterol regulatory element binding protein)	1	6.08e5	7.13e5	9.24e5	1.05e6	active
CG11112	1	1.61e6	1.64e6	1.35e6	1.45e6	inactive
vex (vexed)	1	1.62e6	1.60e6	1.07e6	1.20e6	inactive
vex (vexed)	2	1.61e6	1.59e6	1.02e6	1.21e6	inactive
Spc25	1	1.45e6	1.21e6	8.45e5	7.01e5	inactive
CG42286 (retired record)	1	1.63e6	1.72e6	1.06e6	1.16e6	inactive
Bfc (Booster for Crq)	1	1.22e6	1.30e6	1.01e6	1.21e6	inactive
CG4866	1	1.54e6	1.67e6	1.32e6	1.51e6	inactive
Pka-C2 (Protein kinase, cAMP-dependent, catalytic subunit 2)	1	1.53e6	1.54e6	9.63e5	1.09e6	inactive

Next part, starting with the last 2 of the part before.
gene	reagent no.	Kc cell number, rep 1	Kc cell number, rep 2	S2R+ cell number, rep 1	S2R+ cell number, rep 2	call
CG4866	1	1.54e6	1.67e6	1.32e6	1.51e6	inactive
Pka-C2 (Protein kinase, cAMP-dependent, catalytic subunit 2)	1	1.53e6	1.54e6	9.63e5	1.09e6	inactive
CG10863	1	1.43e6	1.50e6	1.19e6	1.17e6	inactive
CG2246	1	5.24e5		8.73e5		inactive
DIP-kappa (Dpr-interacting protein kappa)	1	1.44e6	1.47e6	8.95e5	1.04e6	inactive
DIP-kappa (Dpr-interacting protein kappa)	2	1.60e6	1.64e6	1.10e6	1.28e6	inactive
CG10914	1	1.55e6	1.61e6	1.12e6	1.24e6	inactive
Tfb4 (Transcription factor B4)	1	1.47e6	1.50e6	9.36e5	1.14e6	inactive
BigH1 (Histone H1 variant BigH1)	1	1.42e6	1.49e6	1.25e6	1.26e6	inactive
Daao1 (D-amino acid oxidase 1)	1	1.53e6	1.56e6	1.35e6	1.52e6	inactive
COX4L (Cytochrome c oxidase subunit 4-like)	1	1.47e6	1.54e6	1.27e6	1.20e6	inactive
nmdyn-D6	1	1.58e6	1.58e6	1.07e6	1.22e6	inactive
Cdc7 (Cdc7 kinase)	1	1.72e6	1.78e6	1.08e6	1.19e6	inactive
Cdc7 (Cdc7 kinase)	2	1.69e6	1.63e6	9.99e5	1.08e6	inactive
CG6337	1	1.56e6	1.62e6	1.33e6	1.45e6	inactive
spoon (spoonbill)	1	5.30e5		8.97e5		inactive
Zip89B (Zinc/iron regulated transporter-related protein 89B)	1	1.34e6	1.39e6	1.17e6	1.35e6	inactive
CG43345	1	1.39e6	1.47e6	1.14e6	1.11e6	inactive
rush (rush hour)	1	5.35e5		9.20e5		inactive
CG5402	1	1.54e6	1.58e6	9.83e5	1.14e6	inactive
CG10911	1	1.53e6	1.64e6	1.22e6	1.30e6	inactive
CG18011	1	1.51e6	1.53e6	1.15e6	1.24e6	inactive
CG18011	2	1.84e6	1.84e6	1.40e6	1.58e6	inactive
CG5418	1	1.77e6	1.78e6	1.39e6	1.48e6	inactive
Hyccin	1	1.37e6	1.44e6	1.18e6	1.21e6	inactive
CG5510	1	1.34e6	1.38e6	9.83e5	1.05e6	inactive
